Assay results from paper PMC3798195.
Results are given in words; binding and its absence hold for the method and conditions named. Binding seen in cells or lysates may run through a third protein. Sequences can lack the tags named with a protein.

By UniProt entry, the sequences of proteins in these tests, tags left out. Where a name states a change or a piece, a line headed by the entry shows the natural chain unless it says otherwise.
UniProt O00429: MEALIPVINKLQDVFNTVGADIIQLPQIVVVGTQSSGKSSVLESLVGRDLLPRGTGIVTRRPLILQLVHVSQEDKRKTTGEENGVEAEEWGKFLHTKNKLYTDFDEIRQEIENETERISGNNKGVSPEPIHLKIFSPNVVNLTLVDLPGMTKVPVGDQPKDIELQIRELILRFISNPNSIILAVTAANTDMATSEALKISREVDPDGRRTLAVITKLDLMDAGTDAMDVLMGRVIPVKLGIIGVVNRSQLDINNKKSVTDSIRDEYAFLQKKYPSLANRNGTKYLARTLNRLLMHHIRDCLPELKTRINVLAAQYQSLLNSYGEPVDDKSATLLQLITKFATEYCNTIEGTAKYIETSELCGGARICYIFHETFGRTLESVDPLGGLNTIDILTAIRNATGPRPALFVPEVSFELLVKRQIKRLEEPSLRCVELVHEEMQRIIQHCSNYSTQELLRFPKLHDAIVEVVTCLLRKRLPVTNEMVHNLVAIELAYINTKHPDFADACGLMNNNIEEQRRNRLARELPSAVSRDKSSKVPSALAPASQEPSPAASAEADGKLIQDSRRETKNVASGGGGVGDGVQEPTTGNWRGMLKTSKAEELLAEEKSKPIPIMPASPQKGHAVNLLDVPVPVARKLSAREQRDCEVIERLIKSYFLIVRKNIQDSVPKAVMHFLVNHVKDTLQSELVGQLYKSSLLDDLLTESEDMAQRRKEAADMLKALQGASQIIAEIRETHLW

Biological target: T1, FLAG-Pex11pβ (UniProt O96011)
T1 sequence: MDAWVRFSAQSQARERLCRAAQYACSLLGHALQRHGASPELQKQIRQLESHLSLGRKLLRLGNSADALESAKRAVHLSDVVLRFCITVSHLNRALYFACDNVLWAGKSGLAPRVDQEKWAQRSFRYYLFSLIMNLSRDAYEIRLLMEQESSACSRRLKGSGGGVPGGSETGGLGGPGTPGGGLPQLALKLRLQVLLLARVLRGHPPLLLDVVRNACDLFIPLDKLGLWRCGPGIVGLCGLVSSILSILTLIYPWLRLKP
Experiment: co-IP; HeLa cells transfected for 24 h (after control dsRNA or FIS1 dsRNA where used), treated with 1 mM DSP cross-linker, lysed in 20 mM Hepes-KOH pH 7.4, 150 mM NaCl, 1% CHAPS; immunoprecipitation with anti-FLAG IgG-conjugated agarose, immunoblot for HA, Mff, FLAG

Substance: HA2-DLP1 A395D (from UniProt O00429 1-736)
- binding: no binding

Substance: HA2-DLP1 G363D (from UniProt O00429 1-736)
- binding: no binding
